In PubChem BioAssay AID504834 (National Center for Advancing Translational Sciences (NCATS), 2011):
Among all 320,000 compounds or so, about 22,000 (6.9%) were called active. The shares of active, inactive and inconclusive entries below differ from those in the screen. Calls come from the whole dose curve; as a rule, active = well fitted inhibition curve with a large enough effect; inconclusive = small, poorly fitted or top-dose-only effect, or another doubt; inactive = no such curve, though single readings can be large or run the other way. Potencies of inconclusive entries are doubtful fits and often do not repeat.

experiment: Primary qHTS for delayed death inhibitors of the malarial parasite plastid, 96 hour incubation; settings: P. falciparum luciferase reporter growth; series mostly up to 28.7 µM; activity change, negative = inhibition: at the top concentration
Summary of the method: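 Erythrocytes infected with luciferase-expressing P. falciparum were dispensed at 2% hematocrit and 0.05% parasitemia (final), then incubated with compounds 96 hours at 37 C in 5% CO2. Luminescence after detection reagent addition reported growth.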
% is set by controls: 0 for no effect and ±100 for the full control effect; potency is the fitted concentration of half-maximal effect.

Structure (SMILES) | Potency | activity change, negative = inhibition
COc1ccccc1CNC(=O)c1cc(-c2ccccc2)nn1Cc1cc(C)no1 | inconclusive: 18.5 µM [inhibitor, single point] | –
CSc1cccc(NC(=S)N(CCN(C)C)C(C)c2ccncc2)c1 (stereo not drawn) | inconclusive: 20.8 µM [inhibitor, partial curve, poor fit] | –
O=C(COC(=O)c1cccnc1Cl)Nc1cccc(S(=O)(=O)N2CCCCC2)c1 | – | inactive: 75.6%
CC(C)NCC(O)Cn1c2c(c3ccccc31)CCc1c-2cnn1-c1ccccc1 (stereo not drawn) | inconclusive: 5.86 µM [inhibitor, single point] | –
COc1ccc(Nc2nc(NCCCN3CCOCC3)nc(N)c2[N+](=O)[O-])cc1 | inconclusive: 16.5 µM [inhibitor, single point] | –
COc1ccc(Nc2nccc(OC)c2C#N)cc1 | – | inactive: 32%
CCOc1ccc(Nc2nc(N)c3ccccc3n2)cc1 | inconclusive: 18.5 µM [inhibitor, partial curve, poor fit] | –
O=c1c(Cl)c(Cl)cnn1Cc1ccc(F)cc1 | inconclusive: 13.1 µM [inhibitor, single point] | –
Nc1cc(=O)[nH]c(SCC(=O)Nc2cc(S(=O)(=O)N3CCCCC3)ccc2Cl)n1 | inconclusive: 10.4 µM [inhibitor, single point] | –
O=C(CSc1ncn[nH]1)Nc1nc(-c2ccccc2)cs1 | inconclusive: 2.08 µM [inhibitor, single point] | –
CCOC(=O)CNc1cccc(C(F)(F)F)c1 | – | inactive: 69.7%
CCCCSc1nnc(-c2ccccc2)c2ccccc12 | inconclusive: 13.1 µM [inhibitor, single point] | –
COc1ccc(C)cc1NC(=O)c1cnc2sccn2c1=O | inconclusive: 18.5 µM [inhibitor, single point] | –
O=C(c1ccc(Cn2cc(Br)cn2)cc1)N1CCN(c2ccccc2)CC1 | – | inactive: -0.739% [at 5.75 µM]
CC(=O)N1CCCN(Cc2cn(-c3cc(C)ccc3C)nc2-c2ccccc2)CC1 | – | inactive: -18%
O=C1c2ccccc2C(=O)N1CCOc1ccccc1Br | – | inactive: 20.2%
Cc1c(NC(C)c2cc(Cl)ccc2O)c(=O)n(-c2ccccc2)n1C (stereo not drawn) | – | inactive: -11.8%
O=C(CC1CCCCC1)Nc1ncn[nH]1 | active: 2.94 µM | –
COc1ccc(CN2CCc3ccccc3C2)c(OC)c1OC | – | inactive: -26%
COc1ccc(CCN2C(=O)CC(Cc3cccc(C)c3)C2=O)cc1OC (stereo not drawn) | – | inactive: -1.45%
COc1ccc(S(=O)(=O)N2CCCCCC2)cc1C(=O)N(C)Cc1cccs1 | inconclusive: 11.7 µM [inhibitor, partial curve] | –
O=C(N/N=C/c1ccc([N+](=O)[O-])o1)c1ccncc1 | active: 6.57 µM | –
CCOc1cc(/C=N/N=C2/NC(=O)C(CC(=O)O)S2)ccc1OCc1ccc(Cl)cc1Cl (stereo not drawn) | – | inactive: 13.3%
Cc1cccc(C2Nc3cccc4cccc(c34)N2)c1 | – | inactive: 7.4%
C/C=C\C=C\C(=O)N1CC2(CC(c3cccc(NC(=O)CC(c4ccccc4)c4ccccc4)c3)=NO2)C[C@H]1C(N)=O (stereo partly drawn) | inconclusive: 11.7 µM [inhibitor, single point] | –

Structure (SMILES) | Potency | activity change, negative = inhibition
CC(=O)Nc1ccc(NC(=O)c2cc(S(=O)(=O)N3CCCCC3)ccc2C)cc1 | inconclusive: 0.131 µM [inhibitor, full curve, poor fit] | –
O=C(NC1CCCC1)C1CC(c2ccc(F)cc2)=NO1 (stereo not drawn) | inconclusive: 18.5 µM [inhibitor, single point] | –
Cc1ccc(N2C(=O)C(Cl)=C(N3CCN(C)CC3)C2=O)c(C)c1 | active: 2.62 µM | –
O=C(Nc1ccc2c(c1)OCO2)c1cc(-c2ccccc2Cl)on1 | inconclusive: 11.7 µM [inhibitor, single point] | –
COc1ccc2c(c1)CCCC21NC(=O)N(CC(=O)c2cc(F)ccc2F)C1=O (stereo not drawn) | inconclusive: 14.7 µM [inhibitor, single point] | –
Cc1noc(/C=C/c2ccco2)c1S(=O)(=O)N1CCC(C(=O)N2CCc3ccccc32)CC1 | – | inactive: -96.6%
COC/C=C/C1=CC(=O)C[C@H](c2ccc3c(c2)OCO3)C1 | inconclusive: 16.5 µM [inhibitor, single point] | –
COC(=O)C1=C(c2cccc(C#N)c2)C[C@@H]2CC[C@H]1N2C(=O)NCc1cccc2ccccc12 | inconclusive: 2.08 µM [inhibitor, full curve] | –
COc1cccc(-c2nnc(SCC(=O)Nc3ccc(OC)c(OC)c3)n2N)c1 | – | inactive: -26.8%
O=C(NCC1CCCCC1)c1cc(S(=O)(=O)N2CCCCC2)ccc1N1CCOCC1 | inconclusive: 2.94 µM [inhibitor, partial curve, poor fit] | –
COc1ccc(-n2c(C)cc(C(=O)COc3ccc(C)nc3[N+](=O)[O-])c2C)cc1 | inconclusive: 10.4 µM [inhibitor, single point] | –
COCC1CCN(C(=O)c2cc(COc3ccccc3SC)on2)C1 (stereo not drawn) | inconclusive: 11.7 µM [inhibitor, partial curve, poor fit] | –
Cc1ccc2[nH]c3c(=O)n(CC(=O)N4CCN(C)CC4)ncc3c2c1 | active: 7.38 µM | –
COc1ccc(CCNC(=O)CNCC(c2ccccc2)N(C)C)cc1OC (stereo not drawn) | – | inactive: 0.827%
COC(=O)c1cc(-c2ccc(Br)cc2)c2c(=O)n(C)c(=O)n(C)c2n1 | active: 5.86 µM | –
O=C(CN1CCN(C(=O)c2cccc(S(=O)(=O)N3CCCC3)c2)CC1)Nc1ccc(F)cc1 | inconclusive: 8.28 µM [inhibitor, partial curve, poor fit] | –
CCN(CC)S(=O)(=O)c1ccc(NS(=O)(=O)CC23CCC(CC2=O)C3(C)C)cc1 (stereo not drawn) | inconclusive: 8.28 µM [inhibitor, partial curve, poor fit] | –
COc1ccc(CNC(=O)c2ccc(S(=O)(=O)NCc3ccco3)cc2)cc1 | – | inactive: -5.91%
N#Cc1nc(COc2ccccc2F)oc1NCCc1ccccc1 | inconclusive: 2.33 µM [inhibitor, partial curve, poor fit] | –
Cc1cc2c(c(=O)n1CC1CCCO1)C(c1ccc3c(c1)OCO3)C(C#N)=C(N)O2 (stereo not drawn) | inconclusive: 0.0828 µM [inhibitor, full curve, poor fit] | –
CC1(C)Cc2c(cnn2-c2ccc(F)cc2)C(NC(=O)CCc2ccncc2)C1 (stereo not drawn) | – | inactive: -13%
O=C(c1ccco1)N1CCN(c2nc3ccsc3c(=O)s2)CC1 | – | inactive: -20.3%
COc1ccc(OCCCCn2c(CO)nc3ccccc32)cc1 | inconclusive: 20.8 µM [inhibitor, partial curve, poor fit] | –
O=[N+]([O-])c1ccc(N2CCN(c3ccccc3)CC2)cc1 | – | inactive: -18.6%
COc1ccc(/C=N/n2c(-c3ccco3)nc3ccccc3c2=O)cc1 | inconclusive: 18.5 µM [inhibitor, single point] | –

Copied from the list:
Value for `COc1ccc(OCCCCn2c(CO)nc3ccccc32)cc1` under Potency: inconclusive: 20.8 µM [inhibitor, partial curve, poor fit]
Value for `Cc1c(NC(C)c2cc(Cl)ccc2O)c(=O)n(-c2ccccc2)n1C` (stereo not drawn) under activity change, negative = inhibition: inactive: -11.8%

Further compounds follow:

Structure (SMILES) | Potency | activity change, negative = inhibition
CCOC(=O)Cn1c(=O)oc2cc(S(=O)(=O)NCc3ccccn3)ccc21 | active: 11.7 µM | –
Cc1cc(C)nc(Nc2n[nH]c(COc3ccccc3)n2)n1 | – | inactive: -2.29%
COc1ccc(C)cc1Nc1n[n+](-c2ccccc2)c(-c2ccc(SC)cc2)s1 | inconclusive: 7.38 µM [inhibitor, partial curve, poor fit] | –
O=C(CNC(=O)COc1ccccc1)NCc1ccccc1F | – | inactive: 5.67%
Fc1ccc2c(c1)nnn2C1CCN(Cc2nnnn2C2CCCCC2)CC1 | – | inactive: -8.32%
CC(N=C1CC(C)(C)CC(=O)/C1=C(/O)CCCN1C(=O)c2ccccc2C1=O)C(=O)O (stereo not drawn) | – | inactive: -8.91%
O=C(O)c1ccc(N/N=C/C=C/c2ccc([N+](=O)[O-])o2)cc1 | inconclusive: 18.5 µM [inhibitor, single point] | –
Cc1ccc(C(=O)C(NC(=O)c2ccco2)N2CCOCC2)cc1 (stereo not drawn) | – | inactive: 19.6%
CCOc1ccc(N2C(=O)Cc3ccccc3C2=O)cc1 | – | inactive: 0.887%
CCCCOc1ccc(C(C)(O)CCN2CCOCC2)cc1 (stereo not drawn) | inconclusive: 4.15 µM [inhibitor, partial curve, poor fit] | –
Cc1ccc(OCC(O)CN2CCC(Cc3ccccc3)CC2)c(C)c1 (stereo not drawn) | inconclusive: 10.4 µM [inhibitor, single point] | –
COc1cc(OC)cc(-n2nnnc2SCC(=O)N2CCCC2)c1 | inconclusive: 11.7 µM [inhibitor, single point] | –
COCC1CCN(C(=O)CCc2nnc(CCCCc3ccccc3)o2)CC1 | inconclusive: 18.5 µM [inhibitor, single point] | –
CCOC(=O)c1cn(Cc2cccc(C)c2)nn1 | – | inactive: -7.81%
Cc1cc(F)ccc1S(=O)(=O)N1CCCOC1CNC(=O)C(=O)NCc1ccc2c(c1)OCO2 (stereo not drawn) | – | inactive: -0.21%
Cc1cccc(OC(=O)c2cncc(Br)c2)c1 | inconclusive: 18.5 µM [inhibitor, single point] | –
COC(=O)C1CCN(CC(=O)Nc2ccc(C(=O)Nc3ccccc3OC)cc2)CC1 | inconclusive: 10.4 µM [inhibitor, single point] | –
COc1ccccc1N=Nc1c(C)n[nH]c1C | – | inactive: -8.13%
COc1cc([N+](=O)[O-])ccc1NC(=O)CN1CCN(C(=O)c2ccco2)CC1 | inconclusive: 10.4 µM [inhibitor, partial curve] | –
COc1ccccc1NS(=O)(=O)c1cc(NC(=O)C2=NNC(=O)CC2)ccc1C | inconclusive: 18.5 µM [inhibitor, single point] | –
O=C(COC(=O)c1ccc(C(F)(F)F)cc1)NC(=O)NC1CCCC1 | inconclusive: 18.5 µM [inhibitor, single point] | –
CC(NC(=O)c1ccccc1)C(=O)NC1=NCCS1 (stereo not drawn) | – | inactive: -29.6%
O=c1[nH]c(CN2CC=C(c3ccccc3)CC2)nc2scc(-c3cccs3)c12 | inconclusive: 9.28 µM [inhibitor, partial curve] | –

2 of the compounds above, field by field:
CC(NC(=O)c1ccccc1)C(=O)NC1=NCCS1 (stereo not drawn)
  activity change, negative = inhibition: inactive: -29.6%
O=c1[nH]c(CN2CC=C(c3ccccc3)CC2)nc2scc(-c3cccs3)c12
  Potency: inconclusive: 9.28 µM [inhibitor, partial curve]
